Measurements reported in PubChem BioAssay AID504793 (Drosophila RNAi Screening Center, 2011)
The deposit covers about 23,000 reagents; shown is a random part of those that have a named target and a result. Over the whole deposit, 62 (0.27%) were called active. 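Calls come from follow-up tests whose scores are not deposited, so confirmed genes may have low counts here; counts are not normalised per plate.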 Raw values are not corrected between plates.

- Test: 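Genes required for cells to halt at G2/M after double-strand DNA breaks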 (primary screen)
- Cell system: Drosophila S2R+ cells
- Knock-down reagent: long dsRNA against Drosophila genes, about 0.25 µg dsRNA per well
- Timing: 4 days of dsRNA, then 4 hours of drug before read-out
- Conditions: doxorubicin 0.5 µM for 4 hours to cause double-strand breaks, in cells also given a low, harmless dose of dsRNA against nbs to sensitise the assay
- Measured: 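Per-well count of mitotic cells stained for phospho-histone H3 after doxorubicin exposure, used as mitotic index; counts are raw and not normalised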
- Reading the numbers: mitotic cells: higher = more cells in mitosis, weaker G2 arrest
- Call rule: 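a call needs confirmation in secondary tests, with other dsRNAs and a check of mitotic timing without damage, not just a high primary count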
- Meaning of the calls: active = confirmed in follow-up tests; inactive = not confirmed

no.	predicted target	dsRNA	mitotic cells, replicate 1	mitotic cells, replicate 2	activity call
1	CG15209	DRSC19655	16		inactive
2	CG11035	DRSC14287	4		inactive
3	CG15905	DRSC06591	5		inactive
4	Tcs3	DRSC10461	4		inactive
5	Tcs3	DRSC29969	15		inactive
6	zuc	DRSC02160	4		inactive
7	arm	DRSC18738	5		inactive
8	arm	DRSC39139	9		inactive
9	Tango2	DRSC19394	6		inactive
10	Tango2	DRSC21526	6		inactive
11	CG14464	DRSC07760	8		inactive
12	nod	DRSC18900	10		inactive
13	nod	DRSC20356	9		inactive
14	Nnf1b	DRSC22080	9		inactive
15	Nnf1b	DRSC25920	6		inactive
16	CR11700 (retired record)	DRSC17794	13		inactive
17	CR11700 (retired record)	DRSC23384	9		inactive
18	CG6005	DRSC15945	8		inactive
19	Acadvl	DRSC07022	8		inactive
20	Acadvl	DRSC26484	6		inactive
21	Torsin	DRSC18570	13	10	inactive
22	CG17097	DRSC02569	4		inactive
23	CG17097	DRSC24178	8		inactive
24	Yod1	DRSC10433	5		inactive
25	Yod1	DRSC27122	1		inactive
26	CG14839	DRSC14963	12		inactive
27	CG14839	DRSC27307	8		inactive
28	Nnp-1	DRSC02165	5		inactive
29	Nnp-1	DRSC29816	10		inactive
30	ds	DRSC00815	3		inactive
31	Kots	DRSC16581	5		inactive
32	pcx	DRSC18186	11		inactive
33	pcx	DRSC18187	10		inactive
34	pcx	DRSC18188	11		inactive
35	pcx	DRSC18189	11		inactive
36	pcx	DRSC18190	8		inactive
37	pcx	DRSC18816	1		inactive
38	mad2	DRSC10274	6		inactive
39	CG1074	DRSC12143	19		inactive
40	CG1074	DRSC29045	3		inactive
41	CG14326	DRSC14805	11		inactive
42	CG14326	DRSC28069	2		inactive
43	Tim23	DRSC21240	13		inactive
44	cact	DRSC03501	9		inactive
45	cact	DRSC28422	4		inactive
46	CG8778	DRSC07264	6		inactive
47	MsrA	DRSC11159	5		inactive
48	ND-B14.7	DRSC04544	12		inactive
49	CG11403	DRSC18532	5		inactive
50	CG13054	DRSC09935	2		inactive
51	CG13054	DRSC29594	9		inactive
52	Hph	DRSC12164	9		inactive
53	Hph	DRSC12251	3		inactive
54	Hph	DRSC25979	7		inactive
55	Dic4	DRSC10317	6		inactive
56	CG17362	DRSC10267	3		inactive
57	kni	DRSC23093	21		inactive
58	kni	DRSC29974	17		inactive
59	Nnk	DRSC15274	8		inactive
60	Nnk	DRSC24564	7		inactive
61	CG14820	DRSC10191	3		inactive
62	CG9951	DRSC11105	3		inactive
63	CR33283	DRSC22918	14		inactive
64	CG5895	DRSC10554	6		inactive
65	CG10859	DRSC02110	4		inactive
66	RpS18	DRSC07540	3		inactive
67	Cyp12c1	DRSC11125	8		inactive
68	Cyp12c1	DRSC24262	6		inactive
69	GCC88	DRSC14264	4		inactive
70	GCC88	DRSC29299	7		inactive
71	CG13362	DRSC17897	10		inactive
72	CG13362	DRSC25324	7		inactive
73	Spn38F	DRSC03616	7		inactive
74	Spn38F	DRSC24629	10		inactive
75	RhoGAP16F	DRSC20025	4		inactive
76	dre4	DRSC08714	9		inactive
77	vanin-like	DRSC17440	14		inactive
78	Arc42	DRSC14340	14		inactive
79	Arc42	DRSC15627	6		inactive
80	Duba	DRSC10582	6		inactive
81	arr	DRSC07451	4		inactive
82	arr	DRSC27035	4		inactive

21 entries from above, set out differently.
Hph [DRSC12164]: mitotic cells, replicate 1 = 9; activity call = inactive
Hph [DRSC12251]: mitotic cells, replicate 1 = 3; activity call = inactive
Hph [DRSC25979]: mitotic cells, replicate 1 = 7; activity call = inactive
Dic4 [DRSC10317]: mitotic cells, replicate 1 = 6; activity call = inactive
CG17362 [DRSC10267]: mitotic cells, replicate 1 = 3; activity call = inactive
kni [DRSC23093]: mitotic cells, replicate 1 = 21; activity call = inactive
kni [DRSC29974]: mitotic cells, replicate 1 = 17; activity call = inactive
Nnk [DRSC15274]: mitotic cells, replicate 1 = 8; activity call = inactive
Nnk [DRSC24564]: mitotic cells, replicate 1 = 7; activity call = inactive
CG14820 [DRSC10191]: mitotic cells, replicate 1 = 3; activity call = inactive
CG9951 [DRSC11105]: mitotic cells, replicate 1 = 3; activity call = inactive
CR33283 [DRSC22918]: mitotic cells, replicate 1 = 14; activity call = inactive
CG5895 [DRSC10554]: mitotic cells, replicate 1 = 6; activity call = inactive
CG10859 [DRSC02110]: mitotic cells, replicate 1 = 4; activity call = inactive
RpS18 [DRSC07540]: mitotic cells, replicate 1 = 3; activity call = inactive
Cyp12c1 [DRSC11125]: mitotic cells, replicate 1 = 8; activity call = inactive
Cyp12c1 [DRSC24262]: mitotic cells, replicate 1 = 6; activity call = inactive
GCC88 [DRSC14264]: mitotic cells, replicate 1 = 4; activity call = inactive
GCC88 [DRSC29299]: mitotic cells, replicate 1 = 7; activity call = inactive
CG13362 [DRSC17897]: mitotic cells, replicate 1 = 10; activity call = inactive
CG13362 [DRSC25324]: mitotic cells, replicate 1 = 7; activity call = inactive

Next records follow:
no.	predicted target	dsRNA	mitotic cells, replicate 1	mitotic cells, replicate 2	activity call
83	ect	DRSC10675	14		inactive
84	ect	DRSC11343	6		inactive
85	ect	DRSC22357	5		inactive
86	ect	DRSC27880	10		inactive
87	mtm	DRSC03576	3		inactive
88	Aptx	DRSC15768	9		inactive
89	Aptx	DRSC28121	13		inactive
90	CG14007	DRSC02339	4		inactive
91	armi	DRSC08193	8		inactive
92	CG13159	DRSC06283	11		inactive
93	CG13159	DRSC28093	5		inactive
94	Best4	DRSC10792	7		inactive
95	Best4	DRSC29196	4		inactive
96	CG31960	DRSC00281	2		inactive
97	CG31960	DRSC26274	5		inactive
98	CG11470	DRSC14313	12		inactive
99	Fkbp14	DRSC04615	14		inactive
100	Mad1	DRSC07561	5		inactive
101	HSPBAP1	DRSC14567	11		inactive
102	CG6398	DRSC19992	4		inactive
103	rtet	DRSC14160	7		inactive
104	COX5BL	DRSC02123	5		inactive
105	COX5BL	DRSC27300	4		inactive
106	Acp98AB (retired record)	DRSC21837	12		inactive
107	Tsp47F	DRSC07325	8		inactive
108	Ca-alpha1D	DRSC03284	3		inactive
109	Cyp316a1	DRSC11130	6		inactive
110	Cyp316a1	DRSC29059	5		inactive
111	sim	DRSC17054	8		inactive
112	sim	DRSC28753	4		inactive
113	Lsm12a	DRSC19702	16		inactive
114	Arpc1	DRSC03438	3		inactive
115	Arpc1	DRSC29641	3		inactive
116	CG30432	DRSC04833	5		inactive
117	CG14205	DRSC19560	26		inactive
118	CG14205	DRSC28253	3		inactive
119	robl	DRSC07674	12		inactive
120	CG14257	DRSC14752	11		inactive
121	CG14257	DRSC27835	4		inactive
122	CG9240	DRSC20177	7		inactive
123	CG14657	DRSC12219	5		inactive
124	CG14657	DRSC12243	8		inactive
125	p120ctn	DRSC07753	3		inactive
126	CG42337	DRSC11686	5		inactive
127	CG42337	DRSC23099	8		inactive
128	CG42337	DRSC27038	8		inactive
129	CG31525	DRSC12004	9		inactive
130	mRpL40	DRSC15749	1		inactive
131	mRpL40	DRSC27264	5		inactive
132	CG10038	DRSC14178	9		inactive
133	CG14070	DRSC02373	6		inactive
134	Zaf1	DRSC16121	1		inactive
135	ppk7	DRSC03236	9		inactive
136	CG13067	DRSC09950	7		inactive
137	Mesh1	DRSC14433	21		inactive
138	chic	DRSC03507	4		inactive
139	CR33294	DRSC22950	6		inactive
140	l(2)k05911	DRSC02523	9		inactive
